Results: patent US20240209027A1, “PEPTIDE AND PEPTIDE-CONTAINING COMPOSITION” (PeptiAID Inc.,, priority 2021, published 2024)
Like-named read-outs stand apart in the source and are kept apart here. Part of at least one peptide drawing is inferred or uncertain, most often the ends. For at least one compound, name, drawing or mass did not settle the structure. Starred links: 1 amine or outer side, 2 acyl side, 3 side chain; linkers in the order of their positions; H or OH if unused. Positions of bridges follow the written chain, without caps; N, C: chain ends. Non-standard residues stand in square brackets, D forms with d. Residues, ends and D or L forms follow the SMILES beside them. Ala(piperidin-4-yl) = O=C([C@H](CC1CCN([*:3])CC1)N[*:1])[*:2]; Phe(4-COOH) = N[C@@H](Cc1ccc(C(=O)O)cc1)C(=O)O; Phe(4-F) = N[C@@H](Cc1ccc(F)cc1)C(=O)O; NMeF = CN[C@@H](Cc1ccccc1)C(=O)O; NMeE = CN[C@@H](CCC(=O)O)C(=O)O; Cha = N[C@@H](CC1CCCCC1)C(=O)O; NMeNle = CCCC[C@H](NC)C(=O)O; Aib = CC(C)(N)C(=O)O

System: SARS-CoV-2 (JPN/TY/WK-521 strain)
Assay type: cell-based
Set-up: key to Anti-SARS-CoV-2 activity: the case where the peptide was found to have anti-SARS-CoV-2 activity when added at 50 nM was designated as “2”; the case where no activity was found upon the addition at 50 nM but the activity was found at 1 μM was designated as “1”
Details: for Anti-SARS-CoV-2 activity: peptide added at 50 nM or 1 μM
[1] = VeroE6/TMPRSS2 cells, JPN/TY/WK-521 strain, 24 hours

Row | Structure (SMILES) | Anti-SARS-CoV-2 activity | Anti-SARS-CoV-2 activity [1] | further results
1 | CCCC[C@H]1C(=O)NC(C)(C)C(=O)N[C@@H](CC2CCCCC2)C(=O)N[C@@H](Cc2ccc(F)cc2)C(=O)N(C)[C@@H](CCC(=O)O)C(=O)N[C@@H](Cc2ccc(O)cc2)C(=O)N[C@@H](Cc2ccc(O)cc2)C(=O)N[C@@H](Cc2ccc(C(=O)O)cc2)C(=O)N[C@H](CCCNC(=N)N)C(=O)N[C@@H](CC2CCCCC2)C(=O)N[C@H](C(=O)N[C@H](CCC(=O)O)C(N)=O)CSCC(=O)N(C)[C@@H](CCC(=O)O)C(=O)N1C [Peptide 5555_p039] ({CH2CO}-[NMeE][NMeNle][Aib][Cha][Phe(4-F)][NMeE]YY[Phe(4-COOH)][dR][Cha]C[dE]-NH2; thioether N-12) | 2 |  | 
2 | CN1C(=O)CSC[C@@H](C(=O)N[C@H](CCC(=O)O)C(=O)O)NC(=O)[C@H](CC2CCCCC2)NC(=O)[C@H](CC2CCNCC2)NC(=O)[C@H](Cc2ccc(C(=O)O)cc2)NC(=O)[C@H](Cc2ccc(O)cc2)NC(=O)[C@H](Cc2ccc(O)cc2)NC(=O)[C@H](CCC(=O)O)N(C)C(=O)[C@H](Cc2ccc(F)cc2)NC(=O)[C@H](CC2CCCCC2)NC(=O)C(C)(C)NC(=O)[C@H](Cc2ccccc2)N(C)C(=O)[C@@H]1CCC(=O)O [Peptide 5555_p119] ({CH2CO}-[NMeE][NMeF][Aib][Cha][Phe(4-F)][NMeE]YY[Phe(4-COOH)][Ala(piperidin-4-yl)][Cha]C[dE]-OH; thioether N-12) |  | 1 | 
3 | CCC(CC)COC(=O)[C@H](C)N[P@](=O)(OC[C@H]1O[C@@](C#N)(c2ccc3c(N)ncnn23)[C@H](O)[C@@H]1O)Oc1ccccc1 [remdesivir, reference compound] |  |  | anti-SARS-CoV-2 activity (viral RNA in culture supernatant 10% or less) (10 μM added): exhibited anti-SARS-CoV-2 activity
4 | CN1C(=O)CSC[C@@H](C(=O)N[C@H](CCC(=O)O)C(N)=O)NC(=O)[C@H](CC2CCCCC2)NC(=O)[C@H](CCCCN)NC(=O)[C@H](Cc2ccc(C(=O)O)cc2)NC(=O)[C@H](Cc2ccc(O)cc2)NC(=O)[C@H](Cc2ccc(O)cc2)NC(=O)[C@H](CCC(=O)O)N(C)C(=O)[C@H](Cc2ccc(F)cc2)NC(=O)[C@H](CC2CCCCC2)NC(=O)[C@H](CO)NC(=O)[C@H](Cc2ccccc2)N(C)C(=O)[C@@H]1CCC(=O)O [Peptide 5555_p088] ({CH2CO}-[NMeE][NMeF]S[Cha][Phe(4-F)][NMeE]YY[Phe(4-COOH)]K[Cha]C[dE]-NH2; thioether N-12) |  | 2 | 
5 | CCCC[C@H]1C(=O)NC(C)(C)C(=O)N[C@@H](CC2CCCCC2)C(=O)N[C@@H](Cc2ccc(F)cc2)C(=O)N(C)[C@@H](CCC(=O)O)C(=O)N[C@@H](Cc2ccc(O)cc2)C(=O)N[C@@H](Cc2ccc(O)cc2)C(=O)N[C@@H](Cc2ccc(C(=O)O)cc2)C(=O)N[C@H](CCCNC(=N)N)C(=O)N[C@@H](CC2CCCCC2)C(=O)N[C@H](C(N)=O)CSCC(=O)N(C)[C@@H](CCC(=O)O)C(=O)N1C [Peptide 5555_p005] ({CH2CO}-[NMeE][NMeNle][Aib][Cha][Phe(4-F)][NMeE]YY[Phe(4-COOH)][dR][Cha]C-NH2; thioether N-12) | 2 |  | 
